Reference: doi:10.1101/2021.07.18.452621
These are yes or no findings as the source states them, for the method shown. In cells and extracts the contact can be indirect. For part of these data: A result given as binding can be weak or reduced; the word gives no strength. Where a sequence is shown, tags or fusion partners need not be part of it.

Assays:
Experiment in all cases: co-IP
EGFP-SadA-WT (mouse) = biological target: T1, EGFP-SadA-WT (mouse) (UniProt Q69Z98)
T1 sequence: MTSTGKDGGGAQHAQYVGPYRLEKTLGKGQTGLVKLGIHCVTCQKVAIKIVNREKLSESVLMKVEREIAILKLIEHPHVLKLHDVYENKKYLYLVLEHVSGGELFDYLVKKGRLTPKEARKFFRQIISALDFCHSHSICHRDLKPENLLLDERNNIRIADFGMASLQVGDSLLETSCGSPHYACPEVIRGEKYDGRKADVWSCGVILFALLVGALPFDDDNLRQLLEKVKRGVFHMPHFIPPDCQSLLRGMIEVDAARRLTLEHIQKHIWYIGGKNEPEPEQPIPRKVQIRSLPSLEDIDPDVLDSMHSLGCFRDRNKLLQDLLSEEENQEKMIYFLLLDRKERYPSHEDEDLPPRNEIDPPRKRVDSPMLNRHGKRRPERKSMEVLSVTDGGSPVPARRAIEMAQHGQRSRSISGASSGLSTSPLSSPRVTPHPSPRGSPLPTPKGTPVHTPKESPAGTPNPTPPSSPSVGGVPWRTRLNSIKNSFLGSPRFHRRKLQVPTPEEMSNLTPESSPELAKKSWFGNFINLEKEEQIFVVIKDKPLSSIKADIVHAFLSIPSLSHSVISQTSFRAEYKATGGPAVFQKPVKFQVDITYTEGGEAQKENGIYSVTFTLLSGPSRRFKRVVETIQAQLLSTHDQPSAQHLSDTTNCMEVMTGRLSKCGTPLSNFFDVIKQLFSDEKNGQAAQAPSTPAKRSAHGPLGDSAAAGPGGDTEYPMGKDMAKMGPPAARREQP

EGFP-SadB-WT (mouse) = biological target: T2, EGFP-SadB-WT (mouse) (UniProt Q5RJI5)
T2 sequence: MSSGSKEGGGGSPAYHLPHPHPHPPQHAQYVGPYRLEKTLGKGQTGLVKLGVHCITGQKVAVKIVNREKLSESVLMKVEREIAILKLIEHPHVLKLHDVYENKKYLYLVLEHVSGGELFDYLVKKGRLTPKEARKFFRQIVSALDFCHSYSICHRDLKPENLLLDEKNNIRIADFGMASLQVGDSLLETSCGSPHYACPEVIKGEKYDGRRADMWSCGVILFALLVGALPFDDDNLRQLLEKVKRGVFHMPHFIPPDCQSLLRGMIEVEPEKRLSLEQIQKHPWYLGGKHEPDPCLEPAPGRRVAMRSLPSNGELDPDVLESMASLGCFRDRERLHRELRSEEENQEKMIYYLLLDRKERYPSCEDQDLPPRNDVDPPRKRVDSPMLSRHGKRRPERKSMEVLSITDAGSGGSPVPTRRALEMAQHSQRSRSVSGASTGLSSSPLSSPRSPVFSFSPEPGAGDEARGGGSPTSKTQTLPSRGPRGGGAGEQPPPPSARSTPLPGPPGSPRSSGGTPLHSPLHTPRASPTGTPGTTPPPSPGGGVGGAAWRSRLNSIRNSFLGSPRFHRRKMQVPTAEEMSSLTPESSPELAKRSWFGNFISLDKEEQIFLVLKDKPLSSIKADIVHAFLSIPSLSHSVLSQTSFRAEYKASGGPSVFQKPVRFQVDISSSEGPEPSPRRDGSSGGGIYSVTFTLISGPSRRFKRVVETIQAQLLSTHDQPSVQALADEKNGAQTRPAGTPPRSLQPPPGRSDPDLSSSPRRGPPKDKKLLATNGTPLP

[1] = biological target: T3, SadA AIS-KA1 fragment (343-636 aa) in psfGFP-C1 (mouse) (UniProt Q69Z98)
T3 sequence: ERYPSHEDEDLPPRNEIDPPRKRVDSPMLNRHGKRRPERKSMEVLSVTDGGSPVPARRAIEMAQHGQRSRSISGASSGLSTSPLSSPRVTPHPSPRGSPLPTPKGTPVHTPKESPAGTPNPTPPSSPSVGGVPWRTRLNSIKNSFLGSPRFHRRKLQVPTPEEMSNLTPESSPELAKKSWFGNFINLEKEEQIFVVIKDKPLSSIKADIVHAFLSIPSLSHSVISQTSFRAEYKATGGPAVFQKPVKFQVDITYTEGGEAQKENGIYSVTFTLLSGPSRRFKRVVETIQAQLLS

[2] = biological target: T4, SadA Kinase-UBA fragment (19-342 aa) in psfGFP-C1 (mouse) (UniProt Q69Z98)
T4 sequence: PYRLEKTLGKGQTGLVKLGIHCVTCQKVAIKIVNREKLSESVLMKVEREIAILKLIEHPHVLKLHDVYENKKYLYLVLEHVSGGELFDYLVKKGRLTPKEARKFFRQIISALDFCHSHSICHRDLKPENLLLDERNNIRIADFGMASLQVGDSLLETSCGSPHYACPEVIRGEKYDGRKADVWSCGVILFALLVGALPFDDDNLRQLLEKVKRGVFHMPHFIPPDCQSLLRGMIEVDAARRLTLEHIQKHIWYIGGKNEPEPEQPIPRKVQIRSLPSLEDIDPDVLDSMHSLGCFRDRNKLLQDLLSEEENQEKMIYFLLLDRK

[3] = biological target: T5, SadB AIS-KA1 fragment (359-715 aa) in psfGFP-C1 (mouse) (UniProt Q5RJI5)
T5 sequence: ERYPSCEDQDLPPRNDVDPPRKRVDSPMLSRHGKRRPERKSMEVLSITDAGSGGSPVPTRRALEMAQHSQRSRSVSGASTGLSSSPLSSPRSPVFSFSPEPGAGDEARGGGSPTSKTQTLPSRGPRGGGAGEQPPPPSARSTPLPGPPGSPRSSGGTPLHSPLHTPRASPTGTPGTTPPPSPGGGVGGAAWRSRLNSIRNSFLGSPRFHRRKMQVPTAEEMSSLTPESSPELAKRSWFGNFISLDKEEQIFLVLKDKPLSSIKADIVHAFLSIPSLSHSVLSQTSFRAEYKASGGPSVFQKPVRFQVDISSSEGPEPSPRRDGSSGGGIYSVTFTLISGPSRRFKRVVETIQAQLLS

[4] = biological target: T6, SadB Kinase-UBA fragment (33-358 aa) in psfGFP-C1 (mouse) (UniProt Q5RJI5)
T6 sequence: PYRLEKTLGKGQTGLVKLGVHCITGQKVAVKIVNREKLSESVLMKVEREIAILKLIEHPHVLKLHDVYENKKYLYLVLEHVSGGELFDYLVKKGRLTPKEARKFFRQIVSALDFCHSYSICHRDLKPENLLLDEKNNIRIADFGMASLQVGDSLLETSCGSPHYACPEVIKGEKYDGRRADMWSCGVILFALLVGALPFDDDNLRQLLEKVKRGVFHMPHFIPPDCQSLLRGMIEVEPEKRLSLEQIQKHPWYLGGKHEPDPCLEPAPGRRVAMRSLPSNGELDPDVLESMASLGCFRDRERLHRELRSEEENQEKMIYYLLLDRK

binding (EGFP-SadA-WT (mouse)): binds
binding (EGFP-SadB-WT (mouse)): binds
binding [1]: no binding
binding [2]: binds
binding [3]: no binding
binding [4]: binds
Substance: HA-AnkB (Ankyrin B, from pAnkyrinB-2HA) (from UniProt Q01484-2)
